Laboratory results published in doi:10.1101/296194.
Results are given in words; binding and its absence hold for the method and conditions named. In cells and extracts the contact can be indirect. Here binding means that the protein was enriched with, or labelled near, the bait; the list need not be complete. A no says only that the protein was not detected with the bait. Tags and fused reporters may be left off the sequences shown.

By UniProt entry, the sequences of proteins in these tests, tags left out.
UniProt P00519: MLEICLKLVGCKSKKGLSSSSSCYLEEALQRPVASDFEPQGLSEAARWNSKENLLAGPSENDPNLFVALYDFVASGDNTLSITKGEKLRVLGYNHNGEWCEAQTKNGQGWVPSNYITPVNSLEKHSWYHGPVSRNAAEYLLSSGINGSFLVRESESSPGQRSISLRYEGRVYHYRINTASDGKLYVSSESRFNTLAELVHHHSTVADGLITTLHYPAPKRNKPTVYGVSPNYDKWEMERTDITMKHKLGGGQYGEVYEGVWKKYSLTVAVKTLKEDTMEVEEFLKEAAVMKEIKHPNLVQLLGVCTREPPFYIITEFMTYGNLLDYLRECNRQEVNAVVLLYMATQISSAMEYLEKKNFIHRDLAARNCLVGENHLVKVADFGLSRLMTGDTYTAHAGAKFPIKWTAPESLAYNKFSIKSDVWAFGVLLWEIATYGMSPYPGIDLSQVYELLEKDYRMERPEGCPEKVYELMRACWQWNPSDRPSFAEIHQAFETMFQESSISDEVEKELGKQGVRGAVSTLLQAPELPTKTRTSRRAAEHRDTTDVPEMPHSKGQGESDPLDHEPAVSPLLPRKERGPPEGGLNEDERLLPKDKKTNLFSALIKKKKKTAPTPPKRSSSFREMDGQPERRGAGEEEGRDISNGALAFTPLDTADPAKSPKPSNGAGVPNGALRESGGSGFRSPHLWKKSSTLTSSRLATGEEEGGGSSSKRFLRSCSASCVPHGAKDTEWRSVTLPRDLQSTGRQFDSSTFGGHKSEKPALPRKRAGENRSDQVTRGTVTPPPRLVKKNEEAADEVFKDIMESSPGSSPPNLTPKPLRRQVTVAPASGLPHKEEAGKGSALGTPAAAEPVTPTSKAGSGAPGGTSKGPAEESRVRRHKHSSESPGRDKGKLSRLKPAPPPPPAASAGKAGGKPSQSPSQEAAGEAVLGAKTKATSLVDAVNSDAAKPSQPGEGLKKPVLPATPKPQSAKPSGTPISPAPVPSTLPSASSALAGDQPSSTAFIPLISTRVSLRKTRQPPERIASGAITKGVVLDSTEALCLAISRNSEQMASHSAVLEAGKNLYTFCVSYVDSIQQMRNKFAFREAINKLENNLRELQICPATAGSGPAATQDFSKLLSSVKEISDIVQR

Tests used:
Assay in all cases: affinity purification with mass spectrometry
Flag-PTPN18-WT = biological target: T1, Flag-PTPN18-WT (UniProt Q99952)
T1 sequence: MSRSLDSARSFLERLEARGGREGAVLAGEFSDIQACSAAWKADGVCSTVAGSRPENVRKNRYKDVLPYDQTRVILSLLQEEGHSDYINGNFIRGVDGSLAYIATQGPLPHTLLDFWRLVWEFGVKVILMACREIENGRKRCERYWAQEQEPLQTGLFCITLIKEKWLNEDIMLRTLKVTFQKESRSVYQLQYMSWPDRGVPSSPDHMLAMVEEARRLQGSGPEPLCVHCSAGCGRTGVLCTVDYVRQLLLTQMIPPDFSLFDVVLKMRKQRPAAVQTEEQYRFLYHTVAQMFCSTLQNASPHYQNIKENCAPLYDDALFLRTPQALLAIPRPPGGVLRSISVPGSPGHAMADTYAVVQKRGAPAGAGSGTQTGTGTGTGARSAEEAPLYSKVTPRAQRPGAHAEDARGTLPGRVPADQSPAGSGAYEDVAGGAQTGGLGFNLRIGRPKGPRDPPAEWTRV

Flag-PTPN7 WT = biological target: T2, Flag-PTPN7 WT (UniProt P35236)
T2 sequence: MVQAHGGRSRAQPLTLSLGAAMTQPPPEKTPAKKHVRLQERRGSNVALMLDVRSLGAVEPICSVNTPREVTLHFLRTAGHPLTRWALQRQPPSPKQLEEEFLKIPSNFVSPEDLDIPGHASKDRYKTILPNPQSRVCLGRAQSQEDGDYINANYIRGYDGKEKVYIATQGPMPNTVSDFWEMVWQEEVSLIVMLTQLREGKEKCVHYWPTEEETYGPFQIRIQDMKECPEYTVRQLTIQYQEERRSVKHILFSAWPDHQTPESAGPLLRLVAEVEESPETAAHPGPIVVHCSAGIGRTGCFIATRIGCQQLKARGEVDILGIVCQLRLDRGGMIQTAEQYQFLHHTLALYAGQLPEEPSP

Flag-PTPN9 WT = biological target: T3, Flag-PTPN9 WT (UniProt P43378)
T3 sequence: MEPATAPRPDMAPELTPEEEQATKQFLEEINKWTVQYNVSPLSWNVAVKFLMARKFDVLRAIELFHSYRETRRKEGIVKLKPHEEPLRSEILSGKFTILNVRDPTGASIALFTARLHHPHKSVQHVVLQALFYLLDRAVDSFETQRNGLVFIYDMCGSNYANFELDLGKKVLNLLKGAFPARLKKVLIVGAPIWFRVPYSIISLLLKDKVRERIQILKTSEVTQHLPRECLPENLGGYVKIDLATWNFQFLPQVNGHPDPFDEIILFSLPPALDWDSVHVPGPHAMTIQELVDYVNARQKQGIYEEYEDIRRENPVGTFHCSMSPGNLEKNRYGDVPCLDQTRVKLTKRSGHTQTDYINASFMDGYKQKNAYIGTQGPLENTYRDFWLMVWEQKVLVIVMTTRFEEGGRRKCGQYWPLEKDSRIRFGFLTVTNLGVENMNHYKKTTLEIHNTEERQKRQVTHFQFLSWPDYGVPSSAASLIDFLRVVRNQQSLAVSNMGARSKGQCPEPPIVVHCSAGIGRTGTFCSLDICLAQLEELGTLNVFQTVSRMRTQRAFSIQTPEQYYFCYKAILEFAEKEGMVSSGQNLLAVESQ

Measured: binding

ABL1 (from UniProt P00519 1-1130)
no binding: all assays above
